From PubChem BioAssay AID2685 (National Center for Advancing Translational Sciences (NCATS), 2010)
Hit rate of the full screen: of about 320,000 compounds, about 2,100 (0.66%) were called active. Inconclusive results, whose numbers are uncertain, are shown with a selection of clear calls. The call rests on the fitted dose curve; in most records, active means well fitted inhibition curve with a large enough effect in the signal ratio, with a control signal flat (not every such curve was filed as active); inconclusive means small, poorly fitted or top-dose-only effect, or effect the other way, or a change in a side signal; inactive means flat fitted curve, though single readings scatter; the % refers to the signal ratio. Potencies of inconclusive entries are doubtful fits and often do not repeat.

Test: qHTS Assay for Lipid Storage Modulators in Drosophila S3 Cells
Conditions: BODIPY lipid droplet fluorescence, 18-24 h, cells fed with added oleic acid; lipid storage change, negative = inhibition: at 46.1 µM (top of the series) unless noted
Outline: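 Laser-scanning cytometry quantifies lipid droplet accumulation (500–530 nm total intensity; droplet/cell object ratio) in oleic acid-fed (400 uM added) Drosophila S3 cells treated with a concentration series. 20 uM Triacsin C defined 100% inhibition.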
On the % scale 0 is the no-effect control and ±100 the full control effect; potency means the concentration at half of the fitted maximal effect.

With Cc1c(Br)cc(C(=O)O)c(C)c1C as the molecule, how does the Potency read?
Its Potency is active: 25.9 µM.

For N#CC1=C(N)Oc2n[nH]c(-c3cccs3)c2C1c1cccnc1 (stereo unspecified), which lipid storage change, negative = inhibition is on record?
The lipid storage change, negative = inhibition was inconclusive: 22.7%.

With CC(CCO)Nc1nc2c([nH]1)c(=O)n(C)c(=O)n2C (stereo unspecified) as the molecule, how does the lipid storage change, negative = inhibition read?
The lipid storage change, negative = inhibition was inconclusive: -16.7%.

Which lipid storage change, negative = inhibition does the source give for CCOc1ccc(N/C=C/C(=O)c2ccc(C)cc2)c([N+](=O)[O-])c1 here?
The lipid storage change, negative = inhibition was inconclusive: 2.45%.

With CN(C(=O)COC(=O)CN1C(=O)C2CC=CCC2C1=O)c1ccccc1 (stereo unspecified) as the molecule, how does the lipid storage change, negative = inhibition read?
Its lipid storage change, negative = inhibition is inconclusive: -6.93%.

For Cc1ccc(N=Nc2c(=O)[nH]n3c(C)cc(C)nc23)cc1, which Potency is on record?
Its Potency is inconclusive: 0.0326 µM [activator, full curve, poor fit].

For O=C(NCc1ccco1)C(=O)c1c[nH]c2ccccc12, which lipid storage change, negative = inhibition is on record?
The lipid storage change, negative = inhibition was inconclusive: 21.7%.

For O=C(O)CCCn1cc(NC(=O)c2cccc(F)c2)cn1, which lipid storage change, negative = inhibition is on record?
The lipid storage change, negative = inhibition was inconclusive: -10.6%.

For O=C(COc1ccccc1F)Nc1cc(S(=O)(=O)N2CCOCC2)ccc1N1CCOCC1, which lipid storage change, negative = inhibition is on record?
Its lipid storage change, negative = inhibition is inconclusive: -12.5%.

Which lipid storage change, negative = inhibition does the source give for Cc1cc(OC(=O)C(C)(C)C)c([N+](=O)[O-])c(=O)[nH]1 here?
The lipid storage change, negative = inhibition was inconclusive: 5.15%.

Which lipid storage change, negative = inhibition does the source give for COc1cc(C(=O)N/N=C/C2CC=CCC2)cc(OC)c1OC (stereo unspecified) here?
The lipid storage change, negative = inhibition was inconclusive: -28.5%.

Which Potency does the source give for CN(C)c1ccc(C(=O)N2CC(=O)N(CCc3ccccc3)C(=O)C2)cc1 here?
The Potency was inconclusive: 3.66 µM [activator, partial curve].

For NS(=O)(=O)c1ccc(NC(=O)CSC2CCCCC2)cc1, which lipid storage change, negative = inhibition is on record?
Its lipid storage change, negative = inhibition is inconclusive: 1.01%.

Which lipid storage change, negative = inhibition does the source give for O=C(Nc1nc(-c2cccc([N+](=O)[O-])c2)cs1)c1cccc([N+](=O)[O-])c1C(=O)O here?
Its lipid storage change, negative = inhibition is inconclusive: 14.9%.

With N#Cc1cc(-c2ccccc2)oc1NC(=O)c1ccccc1 as the molecule, how does the lipid storage change, negative = inhibition read?
The lipid storage change, negative = inhibition was inconclusive: 10.1%.

With O=C(CNS(=O)(=O)c1ccccc1)Nc1ccc(F)cc1F as the molecule, how does the Potency read?
The Potency was inconclusive: 0.0291 µM [falling, full curve, poor fit].

Which lipid storage change, negative = inhibition does the source give for COc1ccc(C)cc1NC(=O)C(c1ccccc1)N1CCN(CC(=O)N2CCCC2)CC1 (stereo unspecified) here?
Its lipid storage change, negative = inhibition is “inconclusive”.

For O=C(Nc1nc(-c2cc(Cl)sc2Cl)cs1)c1ccc(Br)s1, which Potency is on record?
Its Potency is inconclusive: 1.64 µM [activator, partial curve].

For COc1ccc(C)cc1S(=O)(=O)NC1CCCCC1C (stereo unspecified), which lipid storage change, negative = inhibition is on record?
Its lipid storage change, negative = inhibition is inconclusive: 37.3%.

Which Potency does the source give for Cc1ccc2nc(C3CCCN(C(=O)NCc4ccccc4)C3)[nH]c2c1 (stereo unspecified) here?
Its Potency is inconclusive: 0.82 µM [activator, full curve].

For CC(C(=O)Nc1ccc2[nH]c(=O)[nH]c2c1)N1CCN(Cc2ccc3c(c2)OCO3)CC1 (stereo unspecified), which Potency is on record?
Its Potency is inconclusive: 29.1 µM [activator, single point].

For CCn1c(CNC(=O)c2ccc(OC)cc2)nnc1SC, which lipid storage change, negative = inhibition is on record?
The lipid storage change, negative = inhibition was inconclusive: 100%.

Which lipid storage change, negative = inhibition does the source give for O=C(c1cc(S(=O)(=O)N2CCCCC2)ccc1F)N1CCCCC1 here?
Its lipid storage change, negative = inhibition is inconclusive: -5.12%.

For COc1ccccc1C(=O)NC(=O)COC(=O)C1CC2CCCC(C1)C2=O (stereo unspecified), which lipid storage change, negative = inhibition is on record?
The lipid storage change, negative = inhibition was inconclusive: -38.1%.

For C#CCOc1ccccc1/C=N/NC(=O)c1ccccc1OCc1ccccc1, which lipid storage change, negative = inhibition is on record?
The lipid storage change, negative = inhibition was inconclusive: -3.29%.

With CCOC(=O)CCCc1sc(N)nc1-c1[nH]c(=O)[nH]c1C as the molecule, how does the lipid storage change, negative = inhibition read?
Its lipid storage change, negative = inhibition is inconclusive: 4.03%.

Which Potency does the source give for Cc1cccc(C)c1NC(=O)c1cnccn1 here?
The Potency was inconclusive: 0.58 µM [falling, single point].

For CCOC(=O)c1c(NC(=O)CSc2nnc(C)s2)sc2c1CCN(C)C2, which Potency is on record?
Its Potency is inconclusive: 9.2 µM [activator, partial curve].

For Cc1sc2ncnc(N(C)C3CCCCC3)c2c1C, which lipid storage change, negative = inhibition is on record?
Its lipid storage change, negative = inhibition is inconclusive: -94.5%.

Which Potency does the source give for CCc1c(C)nc(SCC(=O)Nc2cccc(Br)c2)[nH]c1=O here?
Its Potency is inconclusive: 20.6 µM [activator, partial curve].

For O=C(Nc1ccc(F)cc1F)c1cc(-c2ccco2)on1, which lipid storage change, negative = inhibition is on record?
The lipid storage change, negative = inhibition was inconclusive: -15.8%.

With O=C(NNc1ccc(O)cc1)c1ccc(Br)cc1 as the molecule, how does the Potency read?
The Potency was inconclusive: 0.58 µM [falling, single point].

For CCOC(=O)c1cc(CC)sc1NC(=O)c1ccc(N2C(=O)CCC2=O)cc1, which lipid storage change, negative = inhibition is on record?
Its lipid storage change, negative = inhibition is inconclusive: 43.5%.

With CC[n+]1c(/C=C/Nc2ccccc2)sc2ccccc21 as the molecule, how does the lipid storage change, negative = inhibition read?
Its lipid storage change, negative = inhibition is inconclusive: 4.49%.

Which Potency does the source give for COc1ccc(C(CCNCc2ccc(N(C)C)cc2)c2ccccc2)cc1 (stereo unspecified) here?
Its Potency is inconclusive: 29.1 µM [cytotoxic, single point].

Which lipid storage change, negative = inhibition does the source give for CNC(=S)NNC(=O)c1ccccc1F here?
The lipid storage change, negative = inhibition was inconclusive: 13.2%.

Which lipid storage change, negative = inhibition does the source give for O=C(NCC1CCCO1)c1cccc(S(=O)(=O)Nc2ccc(SC(F)F)cc2)c1 (stereo unspecified) here?
The lipid storage change, negative = inhibition was inconclusive: 10.9%.

With Cn1nnc(NC(=S)NC(=O)c2ccc(-c3ccc(Br)cc3)o2)n1 as the molecule, how does the lipid storage change, negative = inhibition read?
The lipid storage change, negative = inhibition was inconclusive: 18.4%.

For CCOC(=O)C1=C(COC(=O)CCS(=O)(=O)c2ccc(C)cc2)NC(=O)NC1C (stereo unspecified), which lipid storage change, negative = inhibition is on record?
The lipid storage change, negative = inhibition was inconclusive: -26.5% [at 0.0737 µM].

With CCN(CC)C(=O)CN(c1ccc(F)c(Cl)c1)S(C)(=O)=O as the molecule, how does the lipid storage change, negative = inhibition read?
The lipid storage change, negative = inhibition was inconclusive: 4.04%.

Which lipid storage change, negative = inhibition does the source give for CCOC(=O)c1nn(-c2ccccc2)c(=O)c2c(N)scc12 here?
Its lipid storage change, negative = inhibition is inconclusive: 34.3%.

Which Potency does the source give for O=C1c2ccccc2C(=O)c2c1oc(C(F)(F)F)c2C(=O)c1ccccc1 here?
The Potency was inconclusive: 9.2 µM [activator, partial curve, poor fit].

Which lipid storage change, negative = inhibition does the source give for CC1CN(S(=O)(=O)c2cc(C(=O)NCCC3=CCCCC3)ccc2Cl)CC(C)O1 (stereo unspecified) here?
The lipid storage change, negative = inhibition was “inconclusive”.

Which lipid storage change, negative = inhibition does the source give for Cn1cccc1CC(=O)NNC(=S)Nc1ccc(Cl)cc1 here?
Its lipid storage change, negative = inhibition is inconclusive: 12.4%.

For Cc1nn(-c2ccccc2)c(Cl)c1C(=O)NCC(C)c1ccccc1 (stereo unspecified), which Potency is on record?
Its Potency is inconclusive: 0.58 µM [activator, single point].

For O=C(Nc1cccc(-n2cnnn2)c1)c1ccc(OC(F)(F)F)cc1, which lipid storage change, negative = inhibition is on record?
The lipid storage change, negative = inhibition was inconclusive: -41.3%.

Which Potency does the source give for CSc1nc(=NC(C)=O)ss1 here?
The Potency was inconclusive: 29.1 µM [cytotoxic, single point].

With CCOC(=O)C1(C)NC(c2cccc(C)c2)C2C(=O)N(c3ccccc3)C(=O)C21 (stereo unspecified) as the molecule, how does the lipid storage change, negative = inhibition read?
The lipid storage change, negative = inhibition was “inactive”.

Which lipid storage change, negative = inhibition does the source give for CC1(C)CC(CCNC(=O)CCl)(c2ccccc2)CCO1 (stereo unspecified) here?
Its lipid storage change, negative = inhibition is inconclusive: 30.7%.

Which lipid storage change, negative = inhibition does the source give for CCOc1ccccc1OCCOc1ccc(F)cc1 here?
Its lipid storage change, negative = inhibition is inconclusive: 24.1%.

Which Potency does the source give for O=S(=O)(c1cc(Cl)ccc1Br)N1CCOCC1 here?
Its Potency is inconclusive: 4.61 µM [falling, partial curve].
